These are yes or no findings as the source states them, for the method shown. For some of these results: Binding calls can cover weak binding; strength is not graded here.
Key:
Assay in all cases: SEC; complex-formation experiment: MexA, MexB and OprM (wild type, or one of them mutated) mixed at 3:1:1 in buffer C, dialysed against buffer D (20 mM Na-citrate, 300 mM KCl, 0.02% CYMAL-7) at 4 °C, Superdex200 16/60, 0.5 mL/min; the read-out is the formation of the tripartite complex; both purified
[1] = molecular target: OprM G407A (Pseudomonas aeruginosa) (UniProt Q51487)
[2] = molecular target: OprM G199A (Pseudomonas aeruginosa) (UniProt Q51487)
[3] = molecular target: T1, OprM, full length (Pseudomonas aeruginosa) (UniProt Q51487)
T1 sequence: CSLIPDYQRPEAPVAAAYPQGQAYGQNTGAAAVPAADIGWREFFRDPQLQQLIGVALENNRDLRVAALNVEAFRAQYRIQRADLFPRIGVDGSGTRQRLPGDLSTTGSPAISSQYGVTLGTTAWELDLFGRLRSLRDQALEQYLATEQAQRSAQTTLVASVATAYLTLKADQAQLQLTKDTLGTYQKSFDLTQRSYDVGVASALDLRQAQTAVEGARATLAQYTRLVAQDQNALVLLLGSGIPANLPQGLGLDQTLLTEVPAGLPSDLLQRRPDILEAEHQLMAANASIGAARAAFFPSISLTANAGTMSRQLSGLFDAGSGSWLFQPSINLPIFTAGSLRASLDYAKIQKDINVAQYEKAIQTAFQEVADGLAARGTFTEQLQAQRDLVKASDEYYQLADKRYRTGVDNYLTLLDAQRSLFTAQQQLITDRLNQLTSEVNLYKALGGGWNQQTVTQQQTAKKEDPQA

| Substance | binding [1] | binding [2] | binding [3] |
| --- | --- | --- | --- |
| MexA (a.a. 2-360) (from UniProt P52477 25-383) | no binding | no binding | – |
| MexA D103A (from UniProt P52477) | – | – | binds |
| MexA Q104A (from UniProt P52477) | – | – | binds |
